Results are given in words; binding and its absence hold for the method and conditions named. In cells and extracts the contact can be indirect. A yes stands for co-enrichment or nearness to the bait. Other partners may have been found. For some of these results: No binding means not detected with the bait.
B1: NUP93 (protein, UniProt Q8N1F7 1-819)
chain: MDTEGFGELLQQAEQLAAETEGISELPHVERNLQEIQQAGERLRSRTLTRTSQETADVKASVLLGSRGLDISHISQRLESLSAATTFEPLEPVKDTDIQGFLKNEKDNALLSAIEESRKRTFGMAEEYHRESMLVEWEQVKQRILHTLLASGEDALDFTQESEPSYISDVGPPGRSSLDNIEMAYARQIYIYNEKIVNGHLQPNLVDLCASVAELDDKSISDMWTMVKQMTDVLLTPATDALKNRSSVEVRMEFVRQALAYLEQSYKNYTLVTVFGNLHQAQLGGVPGTYQLVRSFLNIKLPAPLPGLQDGEVEGHPVWALIYYCMRCGDLLAASQVVNRAQHQLGEFKTWFQEYMNSKDRRLSPATENKLRLHYRRALRNNTDPYKRAVYCIIGRCDVTDNQSEVADKTEDYLWLKLNQVCFDDDGTSSPQDRLTLSQFQKQLLEDYGESHFTVNQQPFLYFQVLFLTAQFEAAVAFLFRMERLRCHAVHVALVLFELKLLLKSSGQSAQLLSHEPGDPPCLRRLNFVRLLMLYTRKFESTDPREALQYFYFLRDEKDSQGENMFLRCVSELVIESREFDMILGKLENDGSRKPGVIDKFTSDTKPIINKVASVAENKGLFEEAAKLYDLAKNADKVLELMNKLLSPVVPQISAPQSNKERLKNMALSIAERYRAQGISANKFVDSTFYLLLDLITFFDEYHSGHIDRAFDIIERLKLVPLNQESVEERVAAFRNFSDEIRHNLSEVLLATMNILFTQFKRLKGTSPSSSSRPQRVIEDRDSQLRSQARTLITFAGMIPYRTSGDTNARLVQMEVLMN

Sequences of proteins named here, by UniProt entry; tags and fusion partners are left off.
UniProt Q9BUI4: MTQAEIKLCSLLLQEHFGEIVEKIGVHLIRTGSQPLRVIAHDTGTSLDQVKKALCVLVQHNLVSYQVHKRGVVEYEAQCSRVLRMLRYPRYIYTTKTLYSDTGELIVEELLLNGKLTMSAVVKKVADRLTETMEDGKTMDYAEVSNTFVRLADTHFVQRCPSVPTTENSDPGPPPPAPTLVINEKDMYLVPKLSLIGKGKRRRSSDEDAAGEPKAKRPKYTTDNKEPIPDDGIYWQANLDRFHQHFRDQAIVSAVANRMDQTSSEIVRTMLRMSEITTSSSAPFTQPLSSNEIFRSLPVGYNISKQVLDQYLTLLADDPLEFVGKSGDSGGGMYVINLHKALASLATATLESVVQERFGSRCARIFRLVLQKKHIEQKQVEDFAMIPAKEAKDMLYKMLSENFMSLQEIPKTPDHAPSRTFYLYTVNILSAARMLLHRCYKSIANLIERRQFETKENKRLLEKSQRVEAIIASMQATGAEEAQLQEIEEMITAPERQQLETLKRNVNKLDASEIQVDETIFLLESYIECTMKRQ
UniProt O15318: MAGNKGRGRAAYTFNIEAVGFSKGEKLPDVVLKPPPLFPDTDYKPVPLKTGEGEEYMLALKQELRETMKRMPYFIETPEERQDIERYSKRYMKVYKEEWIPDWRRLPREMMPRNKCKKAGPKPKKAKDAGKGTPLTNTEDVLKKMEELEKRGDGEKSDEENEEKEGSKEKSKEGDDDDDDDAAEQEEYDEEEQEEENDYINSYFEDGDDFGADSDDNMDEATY
UniProt Q9BT43: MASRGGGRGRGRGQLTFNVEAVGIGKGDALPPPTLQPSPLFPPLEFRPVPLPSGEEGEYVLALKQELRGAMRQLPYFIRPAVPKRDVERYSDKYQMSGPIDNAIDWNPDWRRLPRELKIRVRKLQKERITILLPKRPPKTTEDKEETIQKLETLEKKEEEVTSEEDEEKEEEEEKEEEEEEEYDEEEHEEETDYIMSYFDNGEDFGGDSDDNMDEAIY
UniProt P37198: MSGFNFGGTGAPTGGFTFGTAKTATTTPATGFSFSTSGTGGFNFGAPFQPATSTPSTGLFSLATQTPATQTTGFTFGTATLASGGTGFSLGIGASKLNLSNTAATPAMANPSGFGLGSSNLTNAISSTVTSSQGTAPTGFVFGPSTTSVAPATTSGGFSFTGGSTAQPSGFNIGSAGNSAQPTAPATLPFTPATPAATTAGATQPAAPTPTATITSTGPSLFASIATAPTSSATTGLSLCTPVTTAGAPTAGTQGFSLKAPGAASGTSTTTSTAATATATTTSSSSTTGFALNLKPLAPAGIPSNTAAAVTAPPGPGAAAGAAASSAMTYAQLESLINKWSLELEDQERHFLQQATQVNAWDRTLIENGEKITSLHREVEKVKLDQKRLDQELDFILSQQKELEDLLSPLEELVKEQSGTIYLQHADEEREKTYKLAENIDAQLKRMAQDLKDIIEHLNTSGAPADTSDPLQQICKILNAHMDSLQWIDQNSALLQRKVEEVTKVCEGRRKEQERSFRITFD
UniProt P12270: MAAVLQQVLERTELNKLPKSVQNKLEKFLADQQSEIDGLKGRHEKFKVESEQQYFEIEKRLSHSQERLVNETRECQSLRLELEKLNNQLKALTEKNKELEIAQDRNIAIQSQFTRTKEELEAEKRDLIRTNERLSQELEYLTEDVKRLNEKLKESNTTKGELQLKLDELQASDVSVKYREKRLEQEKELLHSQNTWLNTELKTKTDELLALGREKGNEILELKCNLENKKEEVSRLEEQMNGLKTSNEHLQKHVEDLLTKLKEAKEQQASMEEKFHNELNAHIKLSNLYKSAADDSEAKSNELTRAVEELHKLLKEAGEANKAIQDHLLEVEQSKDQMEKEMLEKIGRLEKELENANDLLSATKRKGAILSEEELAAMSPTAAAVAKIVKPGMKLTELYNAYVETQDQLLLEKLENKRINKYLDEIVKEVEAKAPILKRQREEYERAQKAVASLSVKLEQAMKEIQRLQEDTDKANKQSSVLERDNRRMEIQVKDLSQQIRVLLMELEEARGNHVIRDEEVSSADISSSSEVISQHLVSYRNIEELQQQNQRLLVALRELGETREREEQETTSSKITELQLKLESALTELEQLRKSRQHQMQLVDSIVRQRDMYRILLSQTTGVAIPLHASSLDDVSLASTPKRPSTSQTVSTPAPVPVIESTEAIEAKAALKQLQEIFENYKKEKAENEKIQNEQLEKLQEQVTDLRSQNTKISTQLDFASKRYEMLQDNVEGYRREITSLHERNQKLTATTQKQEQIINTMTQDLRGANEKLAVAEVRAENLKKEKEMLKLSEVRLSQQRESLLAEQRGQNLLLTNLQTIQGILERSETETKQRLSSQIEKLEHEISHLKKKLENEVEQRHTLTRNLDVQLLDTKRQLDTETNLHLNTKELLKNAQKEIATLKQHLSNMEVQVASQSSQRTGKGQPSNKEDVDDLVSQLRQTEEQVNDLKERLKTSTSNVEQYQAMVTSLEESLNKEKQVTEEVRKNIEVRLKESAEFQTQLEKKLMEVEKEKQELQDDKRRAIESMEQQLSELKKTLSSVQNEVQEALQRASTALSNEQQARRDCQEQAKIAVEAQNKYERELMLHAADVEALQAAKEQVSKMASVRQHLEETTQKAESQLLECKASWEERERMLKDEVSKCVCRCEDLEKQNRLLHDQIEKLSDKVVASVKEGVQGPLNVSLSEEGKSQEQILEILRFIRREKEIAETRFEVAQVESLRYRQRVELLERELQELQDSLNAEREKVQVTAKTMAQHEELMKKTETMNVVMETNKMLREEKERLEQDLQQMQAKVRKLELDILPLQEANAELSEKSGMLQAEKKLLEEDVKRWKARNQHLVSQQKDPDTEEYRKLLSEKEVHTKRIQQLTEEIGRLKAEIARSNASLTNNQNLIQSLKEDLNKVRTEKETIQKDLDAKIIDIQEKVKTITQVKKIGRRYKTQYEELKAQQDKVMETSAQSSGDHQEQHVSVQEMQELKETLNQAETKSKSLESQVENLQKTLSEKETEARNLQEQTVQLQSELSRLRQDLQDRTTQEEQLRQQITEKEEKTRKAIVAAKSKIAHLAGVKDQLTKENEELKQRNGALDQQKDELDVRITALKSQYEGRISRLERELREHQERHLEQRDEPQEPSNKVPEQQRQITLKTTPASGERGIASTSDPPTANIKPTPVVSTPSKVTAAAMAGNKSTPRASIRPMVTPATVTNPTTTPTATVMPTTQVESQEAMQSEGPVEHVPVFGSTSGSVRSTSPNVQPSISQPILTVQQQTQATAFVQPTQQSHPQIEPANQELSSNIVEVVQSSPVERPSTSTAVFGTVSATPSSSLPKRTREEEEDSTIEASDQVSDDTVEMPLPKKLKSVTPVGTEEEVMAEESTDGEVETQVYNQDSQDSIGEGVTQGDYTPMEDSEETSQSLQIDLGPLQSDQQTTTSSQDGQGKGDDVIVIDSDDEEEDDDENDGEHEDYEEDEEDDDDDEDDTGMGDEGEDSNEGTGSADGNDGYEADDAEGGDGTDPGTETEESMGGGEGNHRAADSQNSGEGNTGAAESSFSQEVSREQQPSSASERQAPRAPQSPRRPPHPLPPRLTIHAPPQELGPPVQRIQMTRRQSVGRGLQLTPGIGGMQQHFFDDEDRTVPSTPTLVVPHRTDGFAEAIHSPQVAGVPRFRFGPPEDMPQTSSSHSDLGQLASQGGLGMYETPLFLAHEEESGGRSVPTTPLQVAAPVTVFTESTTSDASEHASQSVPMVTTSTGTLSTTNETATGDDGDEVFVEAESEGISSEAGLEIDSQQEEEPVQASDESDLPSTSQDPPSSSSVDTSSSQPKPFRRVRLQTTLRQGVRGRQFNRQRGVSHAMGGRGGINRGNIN

What was measured:
Assay in all cases: affinity purification with mass spectrometry
[1] = target: flag-tagged RPC3 (POLR3C) (UniProt Q9BUI4)
[2] = target: flag-tagged RPC7α (POLR3G) (UniProt O15318)
[3] = target: flag-tagged RPC7β (POLR3GL) (UniProt Q9BT43)

Molecule	binding [1]	binding [2]	binding [3]
NUP62 (from UniProt P37198 1-522)	binds	binds	binds
RPC7α (POLR3G), endogenous (from UniProt O15318 1-223)	binds		no binding
RPC7β (POLR3GL), endogenous (from UniProt Q9BT43 1-218)	binds	no binding	
TPR - a nuclear basket protein (from UniProt P12270 1-2363)	binds	binds	binds
B1	binds	binds	binds
